Laboratory results from the supplement of paper PMC4604168 (melanoma cell lines).
This is one part of the list. Single values are uncertain, as repeats are few or missing.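 Imaging used 1,536-well plates; nuclei positive for cleaved PARP by antibody were divided by total DNA-stained nuclei to yield the apoptosis fraction. Doses for screening kept most cells viable, and cell lines differ markedly in resting and induced cleaved-PARP levels.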

Legend:
Assay in all cases: cleaved PARP positive nuclei fraction relative to DMSO control; melanoma cells; higher = more apoptosis
Settings in all cases: library dose: low library concentration; 72 h
CBRC034 = test system: CBRC034 (line from a melanoma biopsy)
COLO792 = test system: COLO792
COLO800 = test system: COLO800
COLO829 = test system: COLO829
G361 = test system: G361
IPC-298 = test system: IPC-298
IST-MEL1 = test system: IST-MEL1
LB2518-MEL = test system: LB2518-MEL
LOXIMVI = test system: LOXIMVI
MEL-HO = test system: MEL-HO
MZ2-MEL = test system: MZ2-MEL
MeWo = test system: MeWo
RPMI7951 = test system: RPMI7951
RVH-421 = test system: RVH-421
SkMel28 = test system: SkMel28
SkMel2 = test system: SkMel2
SkMel30 = test system: SkMel30
UACC62 = test system: UACC62
SkMel5 = test system: SkMel5
UACC257 = test system: UACC257

SMILES	cleaved PARP positive nuclei fraction (CBRC034) [%]	cleaved PARP positive nuclei fraction (COLO792) [%]	cleaved PARP positive nuclei fraction (COLO800) [%]	cleaved PARP positive nuclei fraction (COLO829) [%]	cleaved PARP positive nuclei fraction (G361) [%]	cleaved PARP positive nuclei fraction (IPC-298) [%]	cleaved PARP positive nuclei fraction (IST-MEL1) [%]	cleaved PARP positive nuclei fraction (LB2518-MEL) [%]	cleaved PARP positive nuclei fraction (LOXIMVI) [%]	cleaved PARP positive nuclei fraction (MEL-HO) [%]	cleaved PARP positive nuclei fraction (MZ2-MEL) [%]	cleaved PARP positive nuclei fraction (MeWo) [%]	cleaved PARP positive nuclei fraction (RPMI7951) [%]	cleaved PARP positive nuclei fraction (RVH-421) [%]	cleaved PARP positive nuclei fraction (SkMel28) [%]	cleaved PARP positive nuclei fraction (SkMel2) [%]	cleaved PARP positive nuclei fraction (SkMel30) [%]	cleaved PARP positive nuclei fraction (UACC62) [%]	cleaved PARP positive nuclei fraction (SkMel5) [%]	cleaved PARP positive nuclei fraction (UACC257) [%]
CC(=O)c1c(C)c2cnc(Nc3ccc(N4CCNCC4)cn3)nc2n(C2CCCC2)c1=O [palbociclib] + Clc1ccc(Nc2nnc(Cc3ccncc3)c3ccccc23)cc1 [vatalanib] (first compound 0.04 µM, partner dose 2 µM)	65.8	37.7	60	88.6	113	49.2	313	118	134	179	29.2	89.5	60	79.2	97.6	179	100	128	–	–
C#Cc1cccc(Nc2ncnc3cc(OCCOC)c(OCCOC)cc23)c1 [erlotinib] + O=S(=O)(c1ccccc1)N(CC(F)(F)F)c1ccc(C(O)(C(F)(F)F)C(F)(F)F)cc1 [T0901317] (first compound 0.8 µM, partner dose 1.4 µM)	96.4	80.3	158	126	48.9	69.1	90.8	166	68.3	–	51.6	27.4	83.7	177	191	–	30.4	81.8	68.6	193
Nc1cccc2c1CN(C1CCC(=O)NC1=O)C2=O (configuration not stated) [lenalidomide] + O=S(=O)(c1ccccc1)N(CC(F)(F)F)c1ccc(C(O)(C(F)(F)F)C(F)(F)F)cc1 [T0901317] (first compound 1 µM, partner dose 1.4 µM)	40.1	134	562	178	66.8	62	47.1	151	48.2	–	91	150	91.9	422	123	–	26.1	80.1	77.8	179
C#Cc1cccc(Nc2ncnc3cc(OCCOC)c(OCCOC)cc23)c1 [erlotinib] + CC(C)CCN1c2nc(Nc3cc(F)c(O)c(F)c3)ncc2N(C)C(=O)C1C [BID1870] (first compound 0.8 µM, partner dose 0.2 µM)	138	81.1	78.7	67.9	216	86.2	41.5	78	76.3	–	179	116	80.7	66.6	142	–	38.4	428	58.8	116
Clc1ccc(Nc2nnc(Cc3ccncc3)c3ccccc23)cc1 [vatalanib] + COc1ccc(Cl)c(Nc2nc3ccccc3nc2NS(=O)(=O)c2cccc(NC(=O)C(C)(C)N)c2)c1 [XL147] (first compound 2 µM, partner dose 0.8 µM)	81	146	155	40.5	105	100	100	118	35.7	124	40.2	202	36.9	122	54	132	238	199	–	–
C=CCNC1=C2C[C@@H](C)C[C@H](OC)[C@H](O)[C@@H](C)/C=C(\C)[C@H](OC(N)=O)[C@@H](OC)/C=C\C=C(/C)C(=O)NC(=CC1=O)C2=O [Tanespimycin] + Cn1c(Nc2ccc(C(F)(F)F)cc2)nc2cc(Oc3ccnc(-c4ncc(C(F)(F)F)[nH]4)c3)ccc21 [CHIR265] (first compound 0.002 µM, partner dose 0.08 µM)	539	438	137	75.9	173	128	66.1	212	91.5	164	121	168	141	145	133	165	670	331	–	–
Cn1cncc1[C@@](N)(c1ccc(Cl)cc1)c1ccc2c(c1)c(-c1cccc(Cl)c1)cc(=O)n2C [tipifarnib] + O=C1NC(=O)/C(=C/c2ccc(-c3ccc(F)cc3O)o2)S1 [AS252424] (first compound 0.01 µM, partner dose 1 µM)	106	117	130	168	174	40.1	31.6	104	66.3	–	38.7	30.3	97.9	66.9	94.4	–	279	125	80.7	280
Cc1ccc(NC(=O)c2cccc(N(C)C)c2)cc1NC(=O)c1ccc(O)cc1 + CCc1ccc(CCOc2ccc(CC3SC(=O)NC3=O)cc2)nc1 [pioglitazone] (first compound 2 µM, partner dose 2 µM)	49.8	14.4	107	51.1	130	50.8	34.8	76.4	30.8	–	160	53.2	171	249	214	–	46.8	82.8	49.5	256
C[C@]1(c2nc3c(C(N)=O)cccc3[nH]2)CCCN1 [Veliparib] + COc1ccc2c(c1)CCC1C2CCC2(C)C(NCCCCCCN3C(=O)C=CC3=O)CCC12 [U73122] (first compound 1.4 µM, partner dose 0.4 µM)	71.2	70.8	114	83.9	65.4	159	446	83.1	44.5	–	88.1	168	76.5	53.2	227	–	36.3	236	41.2	94.1

Single records, as listed above. Order of values: cleaved PARP positive nuclei fraction (CBRC034) [%]	cleaved PARP positive nuclei fraction (COLO792) [%]	cleaved PARP positive nuclei fraction (COLO800) [%]	cleaved PARP positive nuclei fraction (COLO829) [%]	cleaved PARP positive nuclei fraction (G361) [%]	cleaved PARP positive nuclei fraction (IPC-298) [%]	cleaved PARP positive nuclei fraction (IST-MEL1) [%]	cleaved PARP positive nuclei fraction (LB2518-MEL) [%]	cleaved PARP positive nuclei fraction (LOXIMVI) [%]	cleaved PARP positive nuclei fraction (MEL-HO) [%]	cleaved PARP positive nuclei fraction (MZ2-MEL) [%]	cleaved PARP positive nuclei fraction (MeWo) [%]	cleaved PARP positive nuclei fraction (RPMI7951) [%]	cleaved PARP positive nuclei fraction (RVH-421) [%]	cleaved PARP positive nuclei fraction (SkMel28) [%]	cleaved PARP positive nuclei fraction (SkMel2) [%]	cleaved PARP positive nuclei fraction (SkMel30) [%]	cleaved PARP positive nuclei fraction (UACC62) [%]	cleaved PARP positive nuclei fraction (SkMel5) [%]	cleaved PARP positive nuclei fraction (UACC257) [%]
Cn1cncc1[C@@](N)(c1ccc(Cl)cc1)c1ccc2c(c1)c(-c1cccc(Cl)c1)cc(=O)n2C [tipifarnib] + O=C1NC(=O)/C(=C/c2ccc(-c3ccc(F)cc3O)o2)S1 [AS252424] (first compound 0.01 µM, partner dose 1 µM) is listed as 106	117	130	168	174	40.1	31.6	104	66.3	–	38.7	30.3	97.9	66.9	94.4	–	279	125	80.7	280
C=CCNC1=C2C[C@@H](C)C[C@H](OC)[C@H](O)[C@@H](C)/C=C(\C)[C@H](OC(N)=O)[C@@H](OC)/C=C\C=C(/C)C(=O)NC(=CC1=O)C2=O [Tanespimycin] + Cn1c(Nc2ccc(C(F)(F)F)cc2)nc2cc(Oc3ccnc(-c4ncc(C(F)(F)F)[nH]4)c3)ccc21 [CHIR265] (first compound 0.002 µM, partner dose 0.08 µM) is listed as 539	438	137	75.9	173	128	66.1	212	91.5	164	121	168	141	145	133	165	670	331	–	–
